# Values from PubChem BioAssay AID743121 (NCATS, 2013).
# Assay: 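Genes whose silencing strengthens cell killing by camptothecin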 (primary screen)
# System: MDA-MB-231 cells, a human breast cancer line
# Reagents: single siRNA against human genes, 20 nM siRNA (0.8 pmol per well)
# Time to read-out: 120 h (drug added 48 h after transfection, read 72 h later)
# Conditions: camptothecin 20 nM (about EC30) for 72 h; vehicle 0.1% DMSO in parallel plates
# Measured: 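Cell viability by ATP luminescence (CellTiter-Glo) as % of non-targeting siRNA wells, and the log2 ratio of viability without drug over viability with camptothecin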
# Reading the numbers: log2 vehicle/camptothecin viability: higher = stronger sensitisation to camptothecin; viability with camptothecin and viability without drug: higher = more viable cells
# Active means: 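Active genes have an RSA gene-level p-value below 0.001, computed from the ratios of their separate siRNAs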
# The whole screen tested about 26,000 reagents; shown is an unselected part. In the full data, 167 (0.63%) got an active call. 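Calls are per gene from RSA p-values that are not deposited; an individual active-marked siRNA can sensitise only weakly.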 The numbers tell different reagents against one gene apart.
target,siRNA no.,log2 vehicle/camptothecin viability,viability with camptothecin (% of control),viability without drug (% of control),activity call
"FOSL2 (FOS like 2, AP-1 transcription factor subunit)",1,-0.165,119,106,inactive
"FOSL2 (FOS like 2, AP-1 transcription factor subunit)",2,-0.458,58.9,42.9,inactive
"FOSL2 (FOS like 2, AP-1 transcription factor subunit)",3,-0.0312,66.1,64.7,inactive
"FOSL2 (FOS like 2, AP-1 transcription factor subunit)",4,-0.237,80.1,68,inactive
FRS3 (fibroblast growth factor receptor substrate 3),1,-0.426,79.6,59.3,inactive
FRS3 (fibroblast growth factor receptor substrate 3),2,0.129,73.1,79.9,inactive
FRS3 (fibroblast growth factor receptor substrate 3),3,0.0343,94.7,96.9,inactive
FRS3 (fibroblast growth factor receptor substrate 3),4,-0.518,67.1,46.9,inactive
"ERCC8 (ERCC excision repair 8, CSA ubiquitin ligase complex subunit)",1,-0.269,110,91.4,inactive
"ERCC8 (ERCC excision repair 8, CSA ubiquitin ligase complex subunit)",2,-0.106,78.3,72.7,inactive
"ERCC8 (ERCC excision repair 8, CSA ubiquitin ligase complex subunit)",3,-0.0855,101,95.1,inactive
"ERCC8 (ERCC excision repair 8, CSA ubiquitin ligase complex subunit)",4,-0.00246,65.1,65,inactive
TESK1 (testis associated actin remodelling kinase 1),1,-0.405,72.3,54.6,inactive
TESK1 (testis associated actin remodelling kinase 1),2,-0.249,31.9,26.9,inactive
TESK1 (testis associated actin remodelling kinase 1),3,-0.417,96.8,72.5,inactive
TESK1 (testis associated actin remodelling kinase 1),4,-0.283,96.8,79.6,inactive
FBXL15 (F-box and leucine rich repeat protein 15),1,-0.57,89.2,60.1,inactive
FBXL15 (F-box and leucine rich repeat protein 15),2,-0.0681,34.8,33.2,inactive
FBXL15 (F-box and leucine rich repeat protein 15),3,-0.338,65.3,51.7,inactive
FBXL15 (F-box and leucine rich repeat protein 15),4,0.472,29,40.2,inactive
CTDSPL (CTD small phosphatase like),1,-0.255,60,50.3,inactive
CTDSPL (CTD small phosphatase like),2,1.09,22.4,47.8,inactive
CTDSPL (CTD small phosphatase like),3,-0.163,122,109,inactive
CTDSPL (CTD small phosphatase like),4,-0.173,38.2,33.9,inactive
FKBP9 (FKBP prolyl isomerase 9),1,-0.00149,65.4,65.3,inactive
FKBP9 (FKBP prolyl isomerase 9),2,-0.0939,83.2,78,inactive
FKBP9 (FKBP prolyl isomerase 9),3,-0.399,147,111,inactive
FKBP9 (FKBP prolyl isomerase 9),4,-0.117,100,92.6,inactive
GNAI3 (G protein subunit alpha i3),1,0.213,90.3,105,inactive
GNAI3 (G protein subunit alpha i3),2,0.204,58.8,67.7,inactive
GNAI3 (G protein subunit alpha i3),3,-0.195,115,101,inactive
METAP1 (methionyl aminopeptidase 1),1,0.0232,77.9,79.2,inactive
METAP1 (methionyl aminopeptidase 1),2,-0.119,107,98.7,inactive
METAP1 (methionyl aminopeptidase 1),3,-0.0637,81.4,77.9,inactive
METAP1 (methionyl aminopeptidase 1),4,-0.181,91.7,80.9,inactive
NCOA5 (nuclear receptor coactivator 5),1,-0.129,106,96.8,inactive
NCOA5 (nuclear receptor coactivator 5),2,-0.105,112,104,inactive
NCOA5 (nuclear receptor coactivator 5),3,-0.0522,103,99.4,inactive
"SPHKAP (SPHK1 interactor, AKAP domain containing)",1,-0.114,104,96.2,inactive
"SPHKAP (SPHK1 interactor, AKAP domain containing)",2,-0.267,114,94.8,inactive
"SPHKAP (SPHK1 interactor, AKAP domain containing)",3,-0.142,77.2,70,inactive
"SPHKAP (SPHK1 interactor, AKAP domain containing)",4,1.11,32.3,69.9,inactive
CUL5 (cullin 5),1,0.241,70.6,83.4,inactive
CUL5 (cullin 5),2,-0.625,80.9,52.5,inactive
CUL5 (cullin 5),3,0.114,103,112,inactive
CUL5 (cullin 5),4,-0.341,58,45.8,inactive
RBM4 (RNA binding motif protein 4),1,-0.305,90.3,73.1,inactive
RBM4 (RNA binding motif protein 4),2,-0.406,89.4,67.4,inactive
RBM4 (RNA binding motif protein 4),3,0.00605,83.8,84.1,inactive
RBM4 (RNA binding motif protein 4),4,-0.327,63.2,50.4,inactive
TRPM6,1,-0.0757,81.3,77.2,inactive
TRPM6,2,0.12,105,114,inactive
TRPM6,3,-0.41,81.6,61.4,inactive
TRPM6,4,0.00994,84.2,84.8,inactive
"F3 (coagulation factor III, tissue factor)",1,-0.0662,77.5,74,inactive
"F3 (coagulation factor III, tissue factor)",2,-0.365,75,58.2,inactive
"F3 (coagulation factor III, tissue factor)",3,0.0493,74.7,77.3,inactive
"F3 (coagulation factor III, tissue factor)",4,-0.00836,43.8,43.6,inactive
ROCK1 (Rho associated coiled-coil containing protein kinase 1),1,-0.275,132,109,inactive
ROCK1 (Rho associated coiled-coil containing protein kinase 1),2,-0.277,97.9,80.7,inactive
ROCK1 (Rho associated coiled-coil containing protein kinase 1),3,-0.043,90,87.3,inactive
ROCK1 (Rho associated coiled-coil containing protein kinase 1),4,-0.0116,75,74.4,inactive
MMP26 (matrix metallopeptidase 26),1,-0.411,86.8,65.3,inactive
MMP26 (matrix metallopeptidase 26),2,-0.311,55.5,44.7,inactive
MMP26 (matrix metallopeptidase 26),3,-0.133,105,96,inactive
MMP26 (matrix metallopeptidase 26),4,0.368,33.6,43.4,inactive
MYLK4 (myosin light chain kinase family member 4),1,0.062,74,77.2,inactive
MYLK4 (myosin light chain kinase family member 4),2,-0.0546,70.2,67.6,inactive
MYLK4 (myosin light chain kinase family member 4),3,-0.419,90.4,67.6,inactive
MYLK4 (myosin light chain kinase family member 4),4,-0.375,108,83.3,inactive
FKBP15 (FKBP prolyl isomerase family member 15),1,0.104,89.6,96.3,inactive
FKBP15 (FKBP prolyl isomerase family member 15),2,-0.248,86.3,72.6,inactive
FKBP15 (FKBP prolyl isomerase family member 15),3,-0.197,71.9,62.7,inactive
FKBP15 (FKBP prolyl isomerase family member 15),4,-0.0868,77.7,73.1,inactive
PPP1R2C (PPP1R2 family member C),1,-0.0572,24.8,23.8,inactive
PPP1R2C (PPP1R2 family member C),2,0.847,21.4,38.6,inactive
PPP1R2C (PPP1R2 family member C),3,-0.358,45,35.1,inactive
PPP1R2C (PPP1R2 family member C),4,-0.538,78.1,53.8,inactive
CFL1 (cofilin 1),1,-0.137,82.4,75,inactive
CFL1 (cofilin 1),2,-0.0442,94.8,92,inactive
CFL1 (cofilin 1),3,-0.337,49.3,39,inactive
ZNF280A (zinc finger protein 280A),1,-0.112,79.5,73.6,inactive
ZNF280A (zinc finger protein 280A),2,0.122,81.7,88.9,inactive
ZNF280A (zinc finger protein 280A),3,-0.327,68.2,54.4,inactive
SIRT3 (sirtuin 3),1,-0.348,54.2,42.6,inactive
SIRT3 (sirtuin 3),2,-0.0652,55.4,53,inactive
SIRT3 (sirtuin 3),3,-0.533,69.2,47.8,inactive
SIRT3 (sirtuin 3),4,-0.173,91.1,80.8,inactive
